Results are given in words; binding and its absence hold for the method and conditions named. Some entries that bind do so weakly or less than the wild type. Values belong to the binder of their own block, whether it stands above or below them.
Columns and labels:
[1] = target: human gastric mucin MUC6 (human (endogenous in gastric corpus tissue)) (UniProt Q6W4X9); experiment: far-Western, overlay or dot blot; 125I-labeled TFF2 incubated with a nitrocellulose blot of a 1% AgGE of Sephacryl S-500 fractions B8-D12 of a human gastric corpus E1-extract reduced in boiling 1% β-mercaptoethanol; autoradiography; only the binder purified
[2] = target: human gastric TFF2 (endogenous) (human (endogenous in gastric corpus tissue)) (UniProt Q03403); experiment: SEC + other: SDS-PAGE with Western blot; low-molecular-mass SEC fractions of human gastric extract, 15% SDS-PAGE under reducing and non-reducing conditions, Western blot for TFF2
[3] = target: 125I-labeled recombinant human glycosylated TFF2 (human) (UniProt Q03403); experiment: non-reducing SDS-PAGE and autoradiography; 125I-labeled TFF2 without S-mucin, 15% SDS-PAGE under non-reducing conditions; both purified

Protein sequences, listed by entry. Tags and fused reporters are not part of them. Residues count along the entry.
UniProt Q6W4X9, residues 23-2439: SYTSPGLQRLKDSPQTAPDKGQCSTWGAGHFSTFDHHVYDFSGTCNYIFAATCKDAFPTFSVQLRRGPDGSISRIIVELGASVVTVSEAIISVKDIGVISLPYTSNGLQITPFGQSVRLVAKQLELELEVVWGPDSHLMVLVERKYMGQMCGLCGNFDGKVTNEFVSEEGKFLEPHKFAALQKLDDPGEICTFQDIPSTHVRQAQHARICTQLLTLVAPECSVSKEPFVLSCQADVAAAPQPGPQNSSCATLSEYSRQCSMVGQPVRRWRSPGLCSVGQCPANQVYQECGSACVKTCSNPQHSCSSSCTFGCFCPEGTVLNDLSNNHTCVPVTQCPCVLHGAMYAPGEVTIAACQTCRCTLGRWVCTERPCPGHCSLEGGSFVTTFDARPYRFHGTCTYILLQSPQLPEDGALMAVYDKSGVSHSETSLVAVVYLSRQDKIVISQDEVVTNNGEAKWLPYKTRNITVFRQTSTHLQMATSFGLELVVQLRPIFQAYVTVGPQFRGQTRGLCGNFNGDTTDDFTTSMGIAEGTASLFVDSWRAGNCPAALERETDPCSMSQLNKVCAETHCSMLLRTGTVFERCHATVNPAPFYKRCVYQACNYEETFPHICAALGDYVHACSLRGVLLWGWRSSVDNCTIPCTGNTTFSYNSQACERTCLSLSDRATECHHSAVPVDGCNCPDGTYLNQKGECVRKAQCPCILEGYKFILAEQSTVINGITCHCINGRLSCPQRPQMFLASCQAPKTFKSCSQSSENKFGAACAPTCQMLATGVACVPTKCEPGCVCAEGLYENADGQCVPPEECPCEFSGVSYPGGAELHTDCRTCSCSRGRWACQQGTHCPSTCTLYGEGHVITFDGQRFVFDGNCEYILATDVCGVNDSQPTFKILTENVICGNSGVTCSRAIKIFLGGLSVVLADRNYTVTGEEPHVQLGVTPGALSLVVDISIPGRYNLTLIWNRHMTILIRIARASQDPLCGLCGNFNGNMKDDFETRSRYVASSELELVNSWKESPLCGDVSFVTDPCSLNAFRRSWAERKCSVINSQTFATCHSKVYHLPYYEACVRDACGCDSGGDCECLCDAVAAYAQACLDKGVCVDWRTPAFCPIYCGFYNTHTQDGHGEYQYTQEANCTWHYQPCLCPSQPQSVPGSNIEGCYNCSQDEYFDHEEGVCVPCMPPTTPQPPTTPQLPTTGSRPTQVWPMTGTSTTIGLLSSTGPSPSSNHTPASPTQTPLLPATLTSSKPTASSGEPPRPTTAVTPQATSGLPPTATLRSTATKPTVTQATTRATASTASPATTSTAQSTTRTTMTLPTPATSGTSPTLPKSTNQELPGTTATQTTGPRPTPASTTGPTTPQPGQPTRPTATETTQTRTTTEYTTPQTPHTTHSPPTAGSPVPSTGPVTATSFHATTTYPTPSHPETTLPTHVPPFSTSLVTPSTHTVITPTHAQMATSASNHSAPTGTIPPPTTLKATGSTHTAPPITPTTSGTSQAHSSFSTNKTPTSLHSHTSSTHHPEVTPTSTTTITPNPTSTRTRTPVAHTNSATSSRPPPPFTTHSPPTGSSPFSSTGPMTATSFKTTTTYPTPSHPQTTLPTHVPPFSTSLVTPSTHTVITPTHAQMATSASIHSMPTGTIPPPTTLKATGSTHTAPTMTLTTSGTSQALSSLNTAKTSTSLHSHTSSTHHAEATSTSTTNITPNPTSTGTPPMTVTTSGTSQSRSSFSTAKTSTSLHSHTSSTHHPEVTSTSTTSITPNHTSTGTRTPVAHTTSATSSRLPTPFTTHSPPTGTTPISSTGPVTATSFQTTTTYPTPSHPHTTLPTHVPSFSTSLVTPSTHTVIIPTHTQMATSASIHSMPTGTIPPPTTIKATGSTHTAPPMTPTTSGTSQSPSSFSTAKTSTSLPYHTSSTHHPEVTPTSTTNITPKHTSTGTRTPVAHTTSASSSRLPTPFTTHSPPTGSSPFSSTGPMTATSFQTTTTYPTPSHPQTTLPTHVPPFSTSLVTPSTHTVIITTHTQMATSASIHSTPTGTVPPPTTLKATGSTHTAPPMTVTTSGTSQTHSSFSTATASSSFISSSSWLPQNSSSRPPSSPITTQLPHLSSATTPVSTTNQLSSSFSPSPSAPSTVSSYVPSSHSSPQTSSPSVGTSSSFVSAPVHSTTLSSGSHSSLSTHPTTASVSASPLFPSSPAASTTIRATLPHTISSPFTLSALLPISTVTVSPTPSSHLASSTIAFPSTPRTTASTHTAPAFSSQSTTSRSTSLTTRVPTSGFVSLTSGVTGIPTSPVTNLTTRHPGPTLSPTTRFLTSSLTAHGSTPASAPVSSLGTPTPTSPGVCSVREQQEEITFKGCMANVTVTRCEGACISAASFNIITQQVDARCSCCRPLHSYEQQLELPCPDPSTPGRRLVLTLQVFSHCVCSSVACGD

binding [1]: binds
B1: 125I-labeled porcine pancreatic TFF2 (protein, UniProt P01359 22-127)
chain: QKPAACRCSRQDPKNRVNCGFPGITSDQCFTSGCCFDSQVPGVPWCFKPLPAQESEECVMEVSARKNCGYPGISPEDCARRNCCFSDTIPEVPWCFFPMSVEDCHY
modifications: 125I label

binding [2]: no binding
B2: human gastric TFF2 (endogenous) (protein, UniProt Q03403 24-129)
chain: EKPSPCQCSRLSPHNRTNCGFPGITSDQCFDNGCCFDSSVTGVPWCFHPLPKQESDQCVMEVSDRRNCGYPGISPEECASRKCCFSNFIFEVPWCFFPKSVEDCHY
modifications: mainly N-glycosylated, to a minor extent non-glycosylated

binding [3]: no binding
B3: 125I-labeled recombinant human glycosylated TFF2 (protein, UniProt Q03403 24-129)
chain: EKPSPCQCSRLSPHNRTNCGFPGITSDQCFDNGCCFDSSVTGVPWCFHPLPKQESDQCVMEVSDRRNCGYPGISPEECASRKCCFSNFIFEVPWCFFPKSVEDCHY
modifications: 125I label; N-glycosylated (glycosylated form)

Source: publication PMC6928932
